# Reference: paper doi:10.1101/2025.06.16.659844
# By UniProt entry, the sequences of proteins in these tests, tags left out. Where a name states a change or a piece, a line headed by the entry shows the natural chain unless it says otherwise.
# UniProt P61960: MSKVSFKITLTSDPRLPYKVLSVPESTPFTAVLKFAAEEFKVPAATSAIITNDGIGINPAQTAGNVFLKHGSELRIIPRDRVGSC
# UniProt Q9H9Q4: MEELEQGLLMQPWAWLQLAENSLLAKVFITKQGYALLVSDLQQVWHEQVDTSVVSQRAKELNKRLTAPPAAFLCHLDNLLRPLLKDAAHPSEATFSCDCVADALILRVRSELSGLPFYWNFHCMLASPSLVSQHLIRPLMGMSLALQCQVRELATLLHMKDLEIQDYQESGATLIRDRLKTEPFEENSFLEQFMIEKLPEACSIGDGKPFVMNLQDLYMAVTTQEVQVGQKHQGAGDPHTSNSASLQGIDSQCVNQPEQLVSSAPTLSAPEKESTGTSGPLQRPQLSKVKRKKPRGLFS
# Results are given in words; binding and its absence hold for the method and conditions named. In cells and extracts the contact can be indirect. Binding can be weak; no strength is given.
# Molecular target: GST-UFM1 (UniProt P61960)
# Assay: pull-down
substance,measurement,value
XLF mutated in residues 199-207 (from UniProt Q9H9Q4),binding,binds
